Experimental data: PMC7819943, “Rice protein-binding microarrays: a tool to detect cis-acting elements near promoter regions in rice”
The list shows a part of the results.

Target: T1, OsSMF1 (Oryza sativa, UniProt Q6ZLB0 1-436)
T1 sequence: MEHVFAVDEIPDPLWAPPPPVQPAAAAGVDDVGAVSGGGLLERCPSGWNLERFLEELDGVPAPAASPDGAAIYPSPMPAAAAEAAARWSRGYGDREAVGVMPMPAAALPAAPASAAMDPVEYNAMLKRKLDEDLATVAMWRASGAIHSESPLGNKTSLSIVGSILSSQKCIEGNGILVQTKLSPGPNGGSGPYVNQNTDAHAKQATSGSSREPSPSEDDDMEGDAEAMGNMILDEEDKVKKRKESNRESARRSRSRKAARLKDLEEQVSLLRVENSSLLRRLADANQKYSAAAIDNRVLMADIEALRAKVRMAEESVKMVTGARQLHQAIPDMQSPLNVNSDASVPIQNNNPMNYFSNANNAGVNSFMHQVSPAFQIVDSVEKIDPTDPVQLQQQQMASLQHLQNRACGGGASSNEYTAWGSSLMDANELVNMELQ
Experiment: protein-binding microarray (RPBM); PBS, 2% BSA, 51.3 ng/ul salmon testes DNA, 50 uM zinc acetate, 200 nM TF, 25 C, 1 h; high values mean tight binding
Conditions: protein: recombinant; tags: N-terminal polyhistidine and DsRed monomer fusion (pET32a); chain copies: 2; label: CyDye5-dUTP incorporated in the synthesized complementary strand; 3' TTTTT single-stranded linker to array surface; dsDNA, one strand shown
Summary of the method: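 Transcription factors were each fused at the N-terminus to a polyhistidine tag plus DsRed and expressed in E. coli BL21-CodonPlus before Ni–NTA purification. Binding to a double-stranded custom Agilent array was carried out with 200 nM protein at 25 °C for 1 h in PBS, 2% BSA, salmon testes DNA and 50 µM zinc acetate. The binding signal is per-feature fluorescence intensity, in arbitrary units, on an Axon 4000B scanner.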

In order of rising binding signal:
1. GTGGCGTTGGCGGGGCCCGCGTGTGGCTACGCAGCTCCGGCGGAGTCACCTAGTGCAG  3170 fluorescence intensity (a.u.)
2. CTAGTCGCTTCCGATGATTAAGCTGATGGTTCCTTCCGACCGGAGTCACCTAGTGCAG  3170 fluorescence intensity (a.u.)
3. CACATGGCTGACGGCCCAAACCATCAGACTCAACCATGGCCGGAGTCACCTAGTGCAG  3180 fluorescence intensity (a.u.)
4. TTTTGGATTCCCTTTTCATCCATGGATGCATGTGTTCCTTCGGAGTCACCTAGTGCAG  3220 fluorescence intensity (a.u.)
5. AGGCGTCGAGAAACGAATACACCGTGGAGATGTGGACGAACGGAGTCACCTAGTGCAG  3290 fluorescence intensity (a.u.)
6. AATTTTAATACAAATTCTCATATGAATGTTGTTGTGTTAGCGGAGTCACCTAGTGCAG  3290 fluorescence intensity (a.u.)
7. TCATGTGAAGCTTAATTAGTTAGATAGGTCACCGCTCACCCGGAGTCACCTAGTGCAG  3340 fluorescence intensity (a.u.)
8. GGCCTAACTGTCCTATGCGCTAGTCGCCTCCGACCAAACGCGGAGTCACCTAGTGCAG  3350 fluorescence intensity (a.u.)
9. GCCGACGCGAGCTTTCTTGCGTGTTGTAGCTGGAGTGTTCCGGAGTCACCTAGTGCAG  3360 fluorescence intensity (a.u.)
10. CGGACAGGCGCCGCCTCCTGGATCTGCTCCTGGTGGGTATCGGAGTCACCTAGTGCAG  3380 fluorescence intensity (a.u.)
11. TATCTGTCGACAGATTTCGATTTCTTCACCGTCAAAATGTCGGAGTCACCTAGTGCAG  3450 fluorescence intensity (a.u.)
12. TGCCCTCTCCCGCTGATTGGAGTAGCGTTACCTGTCGTACCGGAGTCACCTAGTGCAG  3550 fluorescence intensity (a.u.)
13. TGGCAACAAACTGACACTGATTCAGAGTATTGTGATCCTTCGGAGTCACCTAGTGCAG  3610 fluorescence intensity (a.u.)
14. GAGCAGCTGAAACCAACAGCTCGGCGAGTTCCGACGTGGACGGAGTCACCTAGTGCAG  3660 fluorescence intensity (a.u.)
15. GTCGCGGATGGTGGAAAGGGAGGCAGGGGTTGGGCCTTGGCGGAGTCACCTAGTGCAG  3670 fluorescence intensity (a.u.)
16. GAGCCTAGTCGAGTTGGTCACGAGTCAAGCCAAGTCAAGTCGGAGTCACCTAGTGCAG  3670 fluorescence intensity (a.u.)
17. TTATTTTATCTCGTGCTCATGACTGAATCATTTAGCTACCCGGAGTCACCTAGTGCAG  3720 fluorescence intensity (a.u.)
18. ATACTAATAGTATAGTAAGCAACTATTGTATGAATTGGCTCGGAGTCACCTAGTGCAG  3740 fluorescence intensity (a.u.)
19. GTACTGTCGCCTGCGCGTCACCGCCGCCTGCTCACCGTTCCGGAGTCACCTAGTGCAG  3760 fluorescence intensity (a.u.)
20. CCGCACAAGAATGTCGTGTCCTGGACGACCGTCGTCGCTGCGGAGTCACCTAGTGCAG  3810 fluorescence intensity (a.u.)
21. AAGAGATAAAAGGGGAAGAAGTAAAAGTGACATTTCACTGCGGAGTCACCTAGTGCAG  3820 fluorescence intensity (a.u.)
22. TTTAGTACTAGTGTACTACATAAATGTCTCATCTCCTCCACGGAGTCACCTAGTGCAG  3960 fluorescence intensity (a.u.)
23. AAACTATGACCCATTTGTCATACTCGTTGACACTGTACCCCGGAGTCACCTAGTGCAG  4010 fluorescence intensity (a.u.)
24. ATAAAGTTTGTAGTCATCGTCGATATCTTTCTAACGCCGCCGGAGTCACCTAGTGCAG  4060 fluorescence intensity (a.u.)
25. AATAAGCCGCCTCCCGCGTGTCCACCCCTCTTGCCTCTGCCGGAGTCACCTAGTGCAG  4110 fluorescence intensity (a.u.)
26. AGGATTAGGTGAAGTTTCTGTCACATCACATGATAGTCATCGGAGTCACCTAGTGCAG  4260 fluorescence intensity (a.u.)
27. GGCCTTTTATGCAAAATTACACCTCGATGACATGTGGGGTCGGAGTCACCTAGTGCAG  4300 fluorescence intensity (a.u.)
28. GGCAGCCGTGTGACAGTGGTAGGGAGTGTCATCGCCGACGCGGAGTCACCTAGTGCAG  4320 fluorescence intensity (a.u.)
29. CATTTTACTAGTTTTGATTATATGACATCTGCAGATTTCGCGGAGTCACCTAGTGCAG  4360 fluorescence intensity (a.u.)
30. ACCCCGCTTCCAGTTCTGACTCTGTTGCCTCTCTGCTTTCCGGAGTCACCTAGTGCAG  4400 fluorescence intensity (a.u.)
31. CCGTGTTTGAGGTTCGTCATCCGTATTTGAAGTCGGTTTTCGGAGTCACCTAGTGCAG  4470 fluorescence intensity (a.u.)
32. CTAAGGGGCTTTGTTCGGCAAACAAAGTTAGGAACAAATCCGGAGTCACCTAGTGCAG  4640 fluorescence intensity (a.u.)
33. ATTGCCAACACACATGGCCATCAGATCACCTTGAACCTACCGGAGTCACCTAGTGCAG  4640 fluorescence intensity (a.u.)
34. ATTCGGTGTGGTAGTGGGTATACTCGTCCTCCTCTTCGTGCGGAGTCACCTAGTGCAG  4770 fluorescence intensity (a.u.)
35. GAAGCTTCATCGGAGCCACTATGACGTTATCTGCTTTCGTCGGAGTCACCTAGTGCAG  4870 fluorescence intensity (a.u.)
36. TATTTGTGCATCTTCTTTACTGAATCATCGTATTCACATGCGGAGTCACCTAGTGCAG  5150 fluorescence intensity (a.u.)
37. ACCACGCACACACCACCTGCTCCCGTCCACGCCACGGCGCCGGAGTCACCTAGTGCAG  5500 fluorescence intensity (a.u.)
38. AAGAAAGCGGCCTTCTCCTCCAGCTCCACCTCACGCGCGCCGGAGTCACCTAGTGCAG  5690 fluorescence intensity (a.u.)
39. CGTCGACCACCACCACGCTCTTGCCCCTGATGACGCCGTGCGGAGTCACCTAGTGCAG  6870 fluorescence intensity (a.u.)
40. AGTTGTGTGACGTCGTCAGCTAGCTAGCTGCCACTGAGCCCGGAGTCACCTAGTGCAG  6870 fluorescence intensity (a.u.)
41. TGGATACTTGGATGACTGTACTGTACTTGCCTTTCTACTTCGGAGTCACCTAGTGCAG  7720 fluorescence intensity (a.u.)
42. ACTATGGATATCTGTTTTAGCTGACATGGCATCCTACTCACGGAGTCACCTAGTGCAG  8140 fluorescence intensity (a.u.)
43. ATGCCATGTCATGTTGAATTTTGGATCGGTGTTGGTATATCGGAGTCACCTAGTGCAG  8930 fluorescence intensity (a.u.)
44. GGCGGTTTTGGCCGACGTGGCGCCTATATGGCTAATTTGACGGAGTCACCTAGTGCAG  9270 fluorescence intensity (a.u.)
45. ATACACACGCATGCGCTTTGGCACGTTGAAGAGGACGAAGCGGAGTCACCTAGTGCAG  9660 fluorescence intensity (a.u.)
46. ATGTCGCACCCGCTTGTCCCCTCCTGACTTCGATTCGCCGCGGAGTCACCTAGTGCAG  14600 fluorescence intensity (a.u.)
47. AGTTTCACATAATTTTGAATCGTTAGATCTATTACAAGATCGGAGTCACCTAGTGCAG  15600 fluorescence intensity (a.u.)
48. ATCGCCGACGTGGCAAGCGAAGCGAGGGATCCCCACCCCTCGGAGTCACCTAGTGCAG  17700 fluorescence intensity (a.u.)
49. CCATCTCCACCGAGTCACACCTTGACTTAACACGTCACCTCGGAGTCACCTAGTGCAG  22200 fluorescence intensity (a.u.)
50. GCTTTCCCTAGCGTTTGTTTCCTCTGTGCAGCAACCGCAGCGGAGTCACCTAGTGCAG  22300 fluorescence intensity (a.u.)
51. GGCTTTCATACAGGCCCATGAACGTGTATGGGCCTAGGCCCGGAGTCACCTAGTGCAG  23100 fluorescence intensity (a.u.)
52. ATTGTGATCAGGAAGATATCCAAATCTGTTAAAGAAAACACGGAGTCACCTAGTGCAG  25700 fluorescence intensity (a.u.)
53. GACCGAGAGACAGAGAGCGCGAGCACGGAATGCTCCGCAGCGGAGTCACCTAGTGCAG  32800 fluorescence intensity (a.u.)
54. AAACACGCGGCATGGCGTGCCGCGATGCAGTCGGAGATGGCGGAGTCACCTAGTGCAG  48600 fluorescence intensity (a.u.)
